We go through four substances from patent US4703107A (priority 1983, dated 1987).

Strings that start with PEPTIDE1 are HELM notation: dots part the residues, brackets hold end groups and non-standard residues.

The series in a line: general procedure: peptide synthesis; dicyclohexylcarbodiimide / 1-hydroxybenzotriazole. As to conditions: conjugation step.

In the case of PEPTIDE1{[GlcA].A.A.P.A.[AEC]}$$$$V2.0, the conjugation yield was found to be 80%. With PHA-Gly-L-Pro-L-Ala-Gly-L-Pro-AEC the figure was 60%; with PHA-L-Pro-L-Ala-Gly-L-Pro-AEC, 60%; with PHA-L-Ala-L-Ala-L-Pro-L-Val-AEC, 80%.
